# Test results reported in paper PMC9902531.
# Protein sequences, listed by entry. Tags and fused reporters are not part of them.
# UniProt Q6NZB1: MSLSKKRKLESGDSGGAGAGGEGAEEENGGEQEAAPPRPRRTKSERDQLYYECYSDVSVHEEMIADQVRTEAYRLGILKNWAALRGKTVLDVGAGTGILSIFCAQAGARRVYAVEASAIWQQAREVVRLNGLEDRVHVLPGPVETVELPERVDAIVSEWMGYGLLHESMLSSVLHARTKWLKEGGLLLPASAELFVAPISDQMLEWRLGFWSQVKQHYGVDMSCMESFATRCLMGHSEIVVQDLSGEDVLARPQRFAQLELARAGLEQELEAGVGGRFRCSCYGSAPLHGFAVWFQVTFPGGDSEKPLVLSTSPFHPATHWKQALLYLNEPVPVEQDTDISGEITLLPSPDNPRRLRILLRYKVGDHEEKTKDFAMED
# UniProt P19091: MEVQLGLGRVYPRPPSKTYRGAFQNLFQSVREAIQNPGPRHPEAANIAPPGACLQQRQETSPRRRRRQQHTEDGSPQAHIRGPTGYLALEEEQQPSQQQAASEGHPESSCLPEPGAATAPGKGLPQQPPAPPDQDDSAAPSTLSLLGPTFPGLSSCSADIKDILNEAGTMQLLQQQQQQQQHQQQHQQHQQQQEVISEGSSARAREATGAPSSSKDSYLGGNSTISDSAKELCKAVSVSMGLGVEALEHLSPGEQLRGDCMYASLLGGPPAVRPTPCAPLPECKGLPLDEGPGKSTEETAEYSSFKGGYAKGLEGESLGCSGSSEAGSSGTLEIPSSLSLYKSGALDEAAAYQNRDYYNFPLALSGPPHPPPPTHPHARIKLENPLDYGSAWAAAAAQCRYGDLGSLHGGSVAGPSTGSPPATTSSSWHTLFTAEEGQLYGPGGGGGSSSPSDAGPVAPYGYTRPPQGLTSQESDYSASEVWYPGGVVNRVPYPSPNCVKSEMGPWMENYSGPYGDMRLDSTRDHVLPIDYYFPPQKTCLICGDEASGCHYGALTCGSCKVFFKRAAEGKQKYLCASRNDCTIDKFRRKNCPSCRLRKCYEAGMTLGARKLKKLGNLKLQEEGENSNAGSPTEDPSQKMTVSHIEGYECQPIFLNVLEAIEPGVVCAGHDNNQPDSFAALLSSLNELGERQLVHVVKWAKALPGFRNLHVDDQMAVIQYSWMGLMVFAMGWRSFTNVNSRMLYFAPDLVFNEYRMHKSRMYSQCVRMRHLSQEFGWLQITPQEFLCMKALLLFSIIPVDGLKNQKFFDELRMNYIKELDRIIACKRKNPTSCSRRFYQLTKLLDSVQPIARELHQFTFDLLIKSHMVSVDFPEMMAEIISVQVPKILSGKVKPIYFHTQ
# No constants are given. Whether binding was seen depends on the method and setting. In cells and extracts the contact can be indirect. Some entries that bind do so weakly or less than the wild type.
# Molecular target: endogenous PRMT6 (mouse) (mouse (endogenous in MN1 cells and in quadriceps muscle)) (UniProt Q6NZB1)
# Test: co-IP; quadriceps muscle of 24-week-old WT and knock-in AR113Q mice; immunoprecipitation with anti-PRMT6 (Bethyl A300-929A) or nonimmune rabbit IgG, protein A magnetic beads; IP buffer 50 mM HEPES, 250 mM NaCl, 5 mM EDTA, 0.1% NP40
substance,measurement,value
androgen receptor of WT mice (endogenous) (from UniProt P19091 1-899),binding,binds
